The source of these data is US20110245473A1.

By UniProt entry, the sequences of proteins in these tests, tags left out. Where a name states a change or a piece, a line headed by the entry shows the natural chain unless it says otherwise. Residues count along the entry.
UniProt P08887, residues 20-358: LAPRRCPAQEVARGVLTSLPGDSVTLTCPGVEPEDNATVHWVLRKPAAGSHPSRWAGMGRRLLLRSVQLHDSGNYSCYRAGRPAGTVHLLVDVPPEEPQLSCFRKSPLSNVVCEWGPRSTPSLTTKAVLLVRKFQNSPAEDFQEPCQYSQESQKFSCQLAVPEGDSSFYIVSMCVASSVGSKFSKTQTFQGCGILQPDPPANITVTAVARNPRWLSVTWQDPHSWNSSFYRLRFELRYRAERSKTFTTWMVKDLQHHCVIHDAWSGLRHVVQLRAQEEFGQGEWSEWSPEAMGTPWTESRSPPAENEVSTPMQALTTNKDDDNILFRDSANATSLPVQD
UniProt P55899: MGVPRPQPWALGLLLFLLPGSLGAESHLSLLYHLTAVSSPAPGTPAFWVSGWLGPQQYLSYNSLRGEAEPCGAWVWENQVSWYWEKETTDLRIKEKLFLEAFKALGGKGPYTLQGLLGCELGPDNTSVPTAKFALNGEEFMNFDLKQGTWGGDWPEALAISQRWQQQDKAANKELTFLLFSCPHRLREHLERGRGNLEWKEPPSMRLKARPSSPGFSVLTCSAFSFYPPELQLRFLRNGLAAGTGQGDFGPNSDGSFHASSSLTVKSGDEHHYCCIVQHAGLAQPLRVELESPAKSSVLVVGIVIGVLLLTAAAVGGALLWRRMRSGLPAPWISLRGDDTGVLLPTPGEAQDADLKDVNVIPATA

In test [1] the target is recombinant human IL-6R sR (R&D systems) (human) (UniProt P08887). Briefly: SPR (Biacore T100, 25 °C): antibody captured on Protein A, rhIL-6sR as analyte. For orientation: SPR reads the build-up and loss of mass on a sensor chip optically.
Test [2] has the same target. Nature of the test: SPR (Biacore T100), antibody captured on Protein A, rhIL-6sR as analyte, 25°C.
Test [3] concerns the target soluble human FcRn (complex of FcRn and β2-microglobulin) (human) (UniProt P55899). Nature of the test: SPR (Biacore 3000), antibody captured, human FcRn as analyte, pH 6.0.

Substitutions are numbered along the chain they refer to. Results are given in words; binding and its absence hold for the method and conditions named. Some entries that bind do so weakly or less than the wild type.

B1: RD-6 (antibody, V domains shown)
VH: QVQLQESGPGLVRPSQTLSLTCTVSGYSITSDHAWSWVRQPPGRGLEWIGYISYSGITTYNPSLKSRVTMLRDTSKNQFSLRLSSVTAADTAVYYCARLLARATAMDYWGQGSLVTVSS
VL: DIQMTQSPSSLSASVGDRVTITCRASQDISSYLNWYQQKPGKAPKLLIYYTSRLHSGVPSRFSGSGSGTDFTFTISSLQPEDIATYYCQQGNTLPYTFGQGTKVEIK
Regarding B1, the binding entry in test [1] is “binds”.

B2: RDC-7 (antibody, V domains shown)
VH: B1 VH with L99T, A103I
VL: B1 VL
For the molecule B2, in test [2], the binding result was “binds”.

B3: RDC-4 (antibody, V domains shown)
VH: B1 VH with L99T
VL: B1 VL
For B3, the binding entry in test [2] is recorded as “binds”.

B4: RDC-8 (antibody, V domains shown)
VH: B1 VH with A103I
VL: B1 VL
On to B4, for which the binding entry in test [2] is recorded as “binds”.

B5: anti-IL-31 receptor antibody H0L0 with M58 constant region (antibody)
heavy: QVQLVQSGAEVKKPGASVKVSCKASGYTFTGYIMNWVRQAPGQGLEWMGLINPYNGGTSYNQKFKGRVTITADESTSTAYMELSSLRSEDTAVYYCARDGYDDGPYTMDYWGQGTLVTVSASTKGPSVFPLAPSSKSTSGGTAALGCLVKDYFPEPVTVSWNSGALTSGVHTFPAVLQSSGLYSLSSVVTVPSSNFGTQTYTCNVDHKPSNTKVDKTVERKSCVECPPCPAPPVAGPSVFLFPPKPKDTLMISRTPEVTCVVVDVSQEDPEVQFNWYVDGVEVHNAKTKPREEQFNSTFRVVSVLTVVHQDWLNGKEYKCKVSNKGLPAPIEKTISKTKGQPREPQVYTLPPSQEEMTKNQVSLTCLVKGFYPSDIAVEWESNGQPENNYKTTPPMLDSDGSFFLYSKLTVDKSRWQEGNVFSCSVMHEALHNHYTQKSLSLSP
VL: DIQMTQSPSSLSASVGDRVTITCRTSENIYSFLAWYQQKPGKAPKLLIYNAKTLAKGVPSRFSGSGSGTDFTLTISSLQPEDFATYYCQHHYESPLTFGGGTKVEIK
With B5, the binding result in test [3] was “binds”.
